Reference: US6100074A, “Mutant mono-oxygenase cytochrome P-450 cam” (BG plc, priority 1994, dated 2000)
For at least one compound, name, drawing or mass did not settle the structure.

By UniProt entry, the sequences of proteins in these tests, tags left out. Residues count along the entry.
UniProt P00183, 2-415 Y97A/C335A: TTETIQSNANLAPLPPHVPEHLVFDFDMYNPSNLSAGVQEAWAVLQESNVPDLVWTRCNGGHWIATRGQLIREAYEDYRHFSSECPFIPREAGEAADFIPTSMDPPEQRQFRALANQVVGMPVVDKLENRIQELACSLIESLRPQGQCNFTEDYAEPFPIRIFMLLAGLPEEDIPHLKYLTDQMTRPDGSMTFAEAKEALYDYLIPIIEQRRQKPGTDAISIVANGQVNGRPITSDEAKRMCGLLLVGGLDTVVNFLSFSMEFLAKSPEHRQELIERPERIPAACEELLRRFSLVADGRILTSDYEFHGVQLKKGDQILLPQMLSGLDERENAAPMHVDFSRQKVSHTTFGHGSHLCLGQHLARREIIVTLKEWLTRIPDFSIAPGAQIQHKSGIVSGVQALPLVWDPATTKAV

Tests used:
Format in all cases: biochemical, P. putida
wild type P450cam [1] = biological target: T1, wild type P450cam (Pseudomonas putida, UniProt P00183); assay: Turnover rate measured as NADH consumption rate, wild type; parameters: reconstituted with putidaredoxin and putidaredoxin reductase; details: WT; Table 4(g)
[2] = biological target: T2, P450cam mutant Y96A, C334A (Pseudomonas putida, UniProt P00183, C335A/Y97A)
T2 construct: reconstituted with putidaredoxin and putidaredoxin reductase
Protocol: (§1) […] The enzymatic reaction was initiated by firstly adding NADH to a total concentration of 2 mM. Further four aliquots of NADH (to increase the NADH concentration by 1 mM each time) were added in intervals of 5 min and the reaction quenched after 30 min by adding 0.5 ml chloroform. The chloroform layer was analysed by gas chromatography.
(§2) Reaction products for some substrate compounds have been purified by high performance liquid chromatography and identified by mass spectroscopy, nuclear magnetic resonance, and/or co-elution. […] Table 4(a) to 4(h) details the product distributions for mutant and substrate combinations where this has been elucidated to date.
(§3) Product structure and distributions following oxidation of substrates
active site mutants. All mutants shown below also contain the C334A

[3] = biological target: T2, P450cam mutant Y96A, C334A; details: also contains C334A, Table 4(g)
Protocol: A solution containing 10 μM putidaredoxin, 2 μM putidaredoxin reductase, 1 μM cytochrome P-450cam mono-oyxgenase (wild-type or mutant) and 1 mM diphenylmethane in 100 mM KC1, 20 mM KH2 PO4 pH7.4 was preincubated at 25° C. in a shaker for 5 min. The enzymatic reaction was initiated by firstly adding NADH to a total concentration of 2 mM. Further four aliquots of NADH (to increase the NADH concentration by 1 mM each time) were added in intervals of 5 min and the reaction quenched after 30 min by adding 0.5 ml chloroform. The chloroform layer was analysed by gas chromatography.
as §2
All mutants listed below also contain the C334A mutation.
Turnover rate measured as NADH consumption rate
(nmole NADH/nmole P450cam/s).

wild type P450cam [4] = biological target: T1, wild type P450cam; assay: Product distribution following oxidation of substrates, WT; parameters: reconstituted with putidaredoxin and putidaredoxin reductase
Protocol: as §1, §2, §3

Compound	Turnover rate (wild type P450cam [1])	Products (%): A ([2]; lindane) [%]	Turnover rate [3]	Products (%): A (wild type P450cam [4]; lindane) [%]	Total products [2] [area/10^6]	Products (%): 3-ol (B) ([2]; phenylcyclohexene) [%]	Products (%): 3-one (A) ([2]; phenylcyclohexene) [%]	Total products (wild type P450cam [4]) [area/10^6]	Products (%): 3-ol (B) (wild type P450cam [4]; phenylcyclohexene) [%]	Products (%): 3-one (A) (wild type P450cam [4]; phenylcyclohexene) [%]
Cl[C@H]1[C@H](Cl)[C@@H](Cl)[C@@H](Cl)[C@H](Cl)[C@H]1Cl [Lindane, hexachlorocyclohexane]	7.5 nmole NADH (nmolP450)^-1 s^-1	100	43.5 nmole NADH (nmolP450)^-1 s^-1	100						
C1=C(c2ccccc2)CCCC1 [Phenylcyclohexene]					36	75	25	42	76	24
